# Some of the results follow.
# By UniProt entry, the sequences of proteins in these tests, tags left out. Where a name states a change or a piece, a line headed by the entry shows the natural chain unless it says otherwise.
# UniProt Q9NUN5: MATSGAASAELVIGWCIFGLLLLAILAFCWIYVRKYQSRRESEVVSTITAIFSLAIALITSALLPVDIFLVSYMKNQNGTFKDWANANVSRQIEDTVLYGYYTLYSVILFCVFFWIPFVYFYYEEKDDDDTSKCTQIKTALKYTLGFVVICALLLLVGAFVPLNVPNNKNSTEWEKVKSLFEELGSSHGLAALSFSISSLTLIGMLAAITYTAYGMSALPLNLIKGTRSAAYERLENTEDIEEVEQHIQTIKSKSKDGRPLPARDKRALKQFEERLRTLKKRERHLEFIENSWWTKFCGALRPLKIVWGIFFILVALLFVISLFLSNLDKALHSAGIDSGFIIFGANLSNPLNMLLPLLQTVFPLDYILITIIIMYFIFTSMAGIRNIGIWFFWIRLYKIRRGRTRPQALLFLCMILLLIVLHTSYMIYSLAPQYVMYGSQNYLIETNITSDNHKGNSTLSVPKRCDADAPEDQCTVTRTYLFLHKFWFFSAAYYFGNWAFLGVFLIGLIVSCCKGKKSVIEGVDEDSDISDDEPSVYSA
# UniProt P61968: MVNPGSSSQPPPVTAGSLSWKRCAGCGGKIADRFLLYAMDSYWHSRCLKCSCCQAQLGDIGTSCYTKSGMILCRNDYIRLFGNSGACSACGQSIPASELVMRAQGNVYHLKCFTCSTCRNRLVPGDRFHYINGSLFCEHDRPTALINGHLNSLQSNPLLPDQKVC
# UniProt O60294: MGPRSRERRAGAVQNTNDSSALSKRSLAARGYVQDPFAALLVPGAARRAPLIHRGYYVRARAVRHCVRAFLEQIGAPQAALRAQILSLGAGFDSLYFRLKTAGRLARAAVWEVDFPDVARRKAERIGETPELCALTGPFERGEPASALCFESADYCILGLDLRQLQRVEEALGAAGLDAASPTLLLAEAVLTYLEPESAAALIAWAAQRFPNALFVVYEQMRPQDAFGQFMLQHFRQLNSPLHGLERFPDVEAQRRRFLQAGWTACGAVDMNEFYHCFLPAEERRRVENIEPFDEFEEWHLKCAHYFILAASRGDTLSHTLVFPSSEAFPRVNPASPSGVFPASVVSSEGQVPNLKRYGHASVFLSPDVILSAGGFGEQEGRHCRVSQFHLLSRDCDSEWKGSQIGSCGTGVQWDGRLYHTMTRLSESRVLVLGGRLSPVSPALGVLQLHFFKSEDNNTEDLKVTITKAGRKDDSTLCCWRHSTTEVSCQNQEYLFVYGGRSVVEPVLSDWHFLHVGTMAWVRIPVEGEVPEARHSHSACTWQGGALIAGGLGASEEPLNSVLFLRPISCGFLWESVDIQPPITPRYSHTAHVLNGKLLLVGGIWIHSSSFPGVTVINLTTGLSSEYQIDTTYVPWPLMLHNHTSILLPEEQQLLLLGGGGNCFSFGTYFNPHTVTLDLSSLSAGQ
# UniProt Q6P1M3: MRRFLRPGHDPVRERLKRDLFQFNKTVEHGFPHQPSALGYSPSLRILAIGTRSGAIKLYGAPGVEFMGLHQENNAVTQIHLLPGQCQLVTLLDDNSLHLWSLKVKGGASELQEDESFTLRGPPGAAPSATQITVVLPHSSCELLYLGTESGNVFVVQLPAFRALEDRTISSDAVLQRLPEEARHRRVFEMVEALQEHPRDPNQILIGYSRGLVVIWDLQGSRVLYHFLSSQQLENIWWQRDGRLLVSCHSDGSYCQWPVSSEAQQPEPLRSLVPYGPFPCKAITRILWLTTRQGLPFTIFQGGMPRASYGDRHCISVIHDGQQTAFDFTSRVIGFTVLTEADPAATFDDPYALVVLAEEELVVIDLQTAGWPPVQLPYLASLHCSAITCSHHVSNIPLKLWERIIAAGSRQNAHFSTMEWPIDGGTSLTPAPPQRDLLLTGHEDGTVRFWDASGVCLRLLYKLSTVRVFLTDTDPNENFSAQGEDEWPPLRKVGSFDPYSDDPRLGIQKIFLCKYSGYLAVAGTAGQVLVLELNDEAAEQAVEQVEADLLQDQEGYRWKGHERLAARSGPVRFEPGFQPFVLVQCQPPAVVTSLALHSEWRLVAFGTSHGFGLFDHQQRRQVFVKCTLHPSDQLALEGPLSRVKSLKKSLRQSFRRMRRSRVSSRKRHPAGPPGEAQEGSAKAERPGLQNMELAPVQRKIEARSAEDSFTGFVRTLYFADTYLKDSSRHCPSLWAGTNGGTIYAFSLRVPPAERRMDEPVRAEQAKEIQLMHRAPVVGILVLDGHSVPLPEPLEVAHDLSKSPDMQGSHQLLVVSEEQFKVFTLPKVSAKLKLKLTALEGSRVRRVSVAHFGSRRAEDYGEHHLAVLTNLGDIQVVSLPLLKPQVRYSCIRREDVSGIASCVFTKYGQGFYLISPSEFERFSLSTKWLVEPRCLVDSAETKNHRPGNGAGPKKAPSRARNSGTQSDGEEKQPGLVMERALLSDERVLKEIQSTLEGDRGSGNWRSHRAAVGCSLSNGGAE
# UniProt O95214: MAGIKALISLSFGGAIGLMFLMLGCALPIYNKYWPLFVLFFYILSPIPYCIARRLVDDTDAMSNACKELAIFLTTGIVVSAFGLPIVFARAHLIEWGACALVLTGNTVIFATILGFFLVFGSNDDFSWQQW
# UniProt P49916: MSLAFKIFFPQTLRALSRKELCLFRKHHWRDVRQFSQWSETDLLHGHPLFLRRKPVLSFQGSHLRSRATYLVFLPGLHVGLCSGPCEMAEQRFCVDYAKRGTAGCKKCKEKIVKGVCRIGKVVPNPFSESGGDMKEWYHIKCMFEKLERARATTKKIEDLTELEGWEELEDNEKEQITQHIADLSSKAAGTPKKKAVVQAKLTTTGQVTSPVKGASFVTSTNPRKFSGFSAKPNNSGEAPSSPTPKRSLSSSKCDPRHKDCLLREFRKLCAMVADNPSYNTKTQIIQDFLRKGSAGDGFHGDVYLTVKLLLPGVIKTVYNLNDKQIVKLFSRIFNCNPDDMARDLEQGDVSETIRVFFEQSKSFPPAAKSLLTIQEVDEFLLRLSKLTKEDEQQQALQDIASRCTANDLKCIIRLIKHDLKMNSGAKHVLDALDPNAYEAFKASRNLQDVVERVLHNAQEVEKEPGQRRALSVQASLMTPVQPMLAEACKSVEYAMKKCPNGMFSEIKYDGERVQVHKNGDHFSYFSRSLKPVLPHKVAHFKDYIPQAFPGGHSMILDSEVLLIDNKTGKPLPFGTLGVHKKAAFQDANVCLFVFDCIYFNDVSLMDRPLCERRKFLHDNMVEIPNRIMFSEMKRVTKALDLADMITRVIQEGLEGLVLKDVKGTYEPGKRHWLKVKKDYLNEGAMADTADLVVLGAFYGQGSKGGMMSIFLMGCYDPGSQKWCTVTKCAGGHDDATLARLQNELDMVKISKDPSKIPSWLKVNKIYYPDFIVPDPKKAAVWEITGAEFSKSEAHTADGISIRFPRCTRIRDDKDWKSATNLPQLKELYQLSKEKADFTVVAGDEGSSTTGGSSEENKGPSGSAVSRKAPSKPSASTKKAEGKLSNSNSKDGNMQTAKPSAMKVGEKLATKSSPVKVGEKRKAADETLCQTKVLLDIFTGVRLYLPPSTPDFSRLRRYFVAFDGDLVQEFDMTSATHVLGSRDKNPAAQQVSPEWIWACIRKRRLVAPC
# UniProt Q6P5S2: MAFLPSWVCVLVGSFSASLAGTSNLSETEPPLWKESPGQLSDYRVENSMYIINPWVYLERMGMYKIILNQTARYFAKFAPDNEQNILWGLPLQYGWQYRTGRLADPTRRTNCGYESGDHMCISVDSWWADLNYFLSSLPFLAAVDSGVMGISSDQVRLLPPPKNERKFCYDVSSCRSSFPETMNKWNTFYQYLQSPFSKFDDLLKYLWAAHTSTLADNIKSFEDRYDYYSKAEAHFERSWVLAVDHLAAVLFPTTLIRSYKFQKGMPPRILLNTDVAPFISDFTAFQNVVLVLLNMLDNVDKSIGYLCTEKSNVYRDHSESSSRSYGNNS
# UniProt P13473: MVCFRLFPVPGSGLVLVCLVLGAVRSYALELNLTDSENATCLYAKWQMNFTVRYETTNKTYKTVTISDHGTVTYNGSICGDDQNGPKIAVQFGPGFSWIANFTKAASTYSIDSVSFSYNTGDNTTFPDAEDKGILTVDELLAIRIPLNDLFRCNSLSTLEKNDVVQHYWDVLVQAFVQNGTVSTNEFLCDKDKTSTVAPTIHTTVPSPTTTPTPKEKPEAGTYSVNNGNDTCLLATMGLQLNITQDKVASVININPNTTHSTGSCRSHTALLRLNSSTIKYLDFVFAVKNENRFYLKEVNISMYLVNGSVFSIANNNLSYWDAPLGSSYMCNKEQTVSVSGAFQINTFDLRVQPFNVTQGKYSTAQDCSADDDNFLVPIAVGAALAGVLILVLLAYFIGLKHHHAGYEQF
# UniProt Q6P1Q0: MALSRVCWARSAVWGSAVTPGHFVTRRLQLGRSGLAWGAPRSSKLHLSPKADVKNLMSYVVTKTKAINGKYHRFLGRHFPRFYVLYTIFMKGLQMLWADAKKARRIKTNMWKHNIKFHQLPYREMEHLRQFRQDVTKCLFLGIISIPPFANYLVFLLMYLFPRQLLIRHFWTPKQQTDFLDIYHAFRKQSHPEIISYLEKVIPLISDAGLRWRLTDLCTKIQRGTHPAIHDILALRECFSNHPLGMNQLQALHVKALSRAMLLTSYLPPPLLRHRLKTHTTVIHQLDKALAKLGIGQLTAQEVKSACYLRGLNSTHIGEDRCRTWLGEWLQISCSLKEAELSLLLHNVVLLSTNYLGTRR
# UniProt P02750: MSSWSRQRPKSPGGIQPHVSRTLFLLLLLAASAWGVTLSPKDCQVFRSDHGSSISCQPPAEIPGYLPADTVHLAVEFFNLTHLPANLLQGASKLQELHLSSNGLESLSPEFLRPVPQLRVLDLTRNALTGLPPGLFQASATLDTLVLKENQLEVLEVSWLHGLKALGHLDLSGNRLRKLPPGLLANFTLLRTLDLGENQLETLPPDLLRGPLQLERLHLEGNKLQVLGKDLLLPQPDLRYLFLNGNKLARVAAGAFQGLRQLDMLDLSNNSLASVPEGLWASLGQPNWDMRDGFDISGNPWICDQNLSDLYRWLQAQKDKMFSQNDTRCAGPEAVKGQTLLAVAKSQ
# UniProt Q9BQK8: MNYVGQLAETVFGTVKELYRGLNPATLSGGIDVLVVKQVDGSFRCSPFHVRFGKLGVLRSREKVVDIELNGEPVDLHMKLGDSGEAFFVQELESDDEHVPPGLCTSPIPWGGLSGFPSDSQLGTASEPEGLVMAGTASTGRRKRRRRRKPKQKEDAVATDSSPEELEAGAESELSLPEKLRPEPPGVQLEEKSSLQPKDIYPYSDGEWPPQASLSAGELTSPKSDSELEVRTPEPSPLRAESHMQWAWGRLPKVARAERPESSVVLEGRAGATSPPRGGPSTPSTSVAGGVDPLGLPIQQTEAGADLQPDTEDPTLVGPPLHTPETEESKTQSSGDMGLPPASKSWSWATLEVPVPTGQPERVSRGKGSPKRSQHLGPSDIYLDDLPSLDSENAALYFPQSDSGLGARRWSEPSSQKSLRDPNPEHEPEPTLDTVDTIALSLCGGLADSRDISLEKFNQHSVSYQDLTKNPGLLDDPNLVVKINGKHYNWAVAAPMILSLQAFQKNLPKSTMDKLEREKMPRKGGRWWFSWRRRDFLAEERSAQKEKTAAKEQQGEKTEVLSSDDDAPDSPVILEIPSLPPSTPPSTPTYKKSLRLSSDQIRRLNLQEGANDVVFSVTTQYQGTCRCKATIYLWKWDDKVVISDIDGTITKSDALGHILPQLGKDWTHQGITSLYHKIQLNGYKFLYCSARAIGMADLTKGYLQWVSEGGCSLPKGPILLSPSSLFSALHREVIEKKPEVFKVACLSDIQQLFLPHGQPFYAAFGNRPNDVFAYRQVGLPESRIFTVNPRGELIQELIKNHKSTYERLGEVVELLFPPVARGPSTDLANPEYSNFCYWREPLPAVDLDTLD
# UniProt Q9NT99: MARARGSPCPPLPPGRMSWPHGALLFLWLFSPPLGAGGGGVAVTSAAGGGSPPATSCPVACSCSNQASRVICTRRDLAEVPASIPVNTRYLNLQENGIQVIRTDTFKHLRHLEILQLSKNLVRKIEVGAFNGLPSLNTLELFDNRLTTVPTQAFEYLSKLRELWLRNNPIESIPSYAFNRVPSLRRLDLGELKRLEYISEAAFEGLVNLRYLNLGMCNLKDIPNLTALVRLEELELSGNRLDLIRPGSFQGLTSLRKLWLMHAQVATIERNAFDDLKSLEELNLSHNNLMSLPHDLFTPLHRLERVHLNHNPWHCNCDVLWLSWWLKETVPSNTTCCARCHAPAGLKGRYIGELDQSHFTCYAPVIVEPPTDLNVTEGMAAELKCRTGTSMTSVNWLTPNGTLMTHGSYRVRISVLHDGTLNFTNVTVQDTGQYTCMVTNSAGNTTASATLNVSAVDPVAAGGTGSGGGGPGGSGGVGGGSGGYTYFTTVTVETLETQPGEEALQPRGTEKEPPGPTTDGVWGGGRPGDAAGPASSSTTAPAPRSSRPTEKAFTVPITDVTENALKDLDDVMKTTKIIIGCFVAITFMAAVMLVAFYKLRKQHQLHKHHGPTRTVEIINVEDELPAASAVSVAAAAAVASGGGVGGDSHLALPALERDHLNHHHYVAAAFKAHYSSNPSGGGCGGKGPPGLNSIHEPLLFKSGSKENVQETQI
# Compound: COc1cccc2cc(-c3nc([C@H]4CC[C@H](C(=O)O)CC4)n4ncnc(N)c34)[nH]c12
# Assay: log2 fold change, soluble protein after heating vs DMSO (PISA); higher = thermal stabilisation; K562 cells, 10 uM, 30 min; active = over 0.2 and 3.5 SD of the protein, either way, in both replicates (recomputed)
# Method in brief: (§1)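 K562 cells at 2×10^6 cells/mL were given 10 μM compound for 30 min. Aliquots then went through 3 min of heating across 48°C-58°C, were pooled, and were extracted in PBS with 0.5% NP-40 at 4°C, and the supernatant after 21,000xg for 90 min was quantified by TMTpro 16plex LC-MS/MS with channel sums equalised. Thermal stability relative to control samples, from duplicates, is given as log2 fold change.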
row,Target,log2 fold change
1,LMBRD1 (UniProt Q9NUN5),inactive: 0.059
2,LMO4 (UniProt P61968),inactive: -0.037
3,LCMT2 (UniProt O60294),inactive: 0.113
4,LGALS8 isoform 2 (UniProt O00214),inactive: -0.278
5,LLGL2 (UniProt Q6P1M3),inactive: -0.189
6,LEPROTL1 isoform 2 (UniProt O95214),inactive: -0.184
7,LENG8 (UniProt Q96PV6),inactive: -0.016
8,LIG3 (UniProt P49916),inactive: -0.016
9,LGALSL (UniProt Q3ZCW2),inactive: -0.085
10,L1TD1 (UniProt Q5T7N2),inactive: -0.21
11,LEG1 (UniProt Q6P5S2),inactive: -0.26
12,LAMP2 isoform 2 (UniProt P13473),inactive: 0.09
13,LINS1 (UniProt Q8NG48),inactive: -0.096
14,LETMD1 isoform 7 (UniProt Q6P1Q0),inactive: 0.052
15,LRG1 (UniProt P02750),inactive: 0.042
16,LRRC14 (UniProt Q15048),inactive: 0.141
17,LPIN3 isoform 2 (UniProt Q9BQK8),inactive: -0.01

# Compound: CS(=O)(=O)CCNCc1ccc(-c2ccc3ncnc(Nc4ccc(OCc5cccc(F)c5)c(Cl)c4)c3c2)o1 [lapatinib]
# Assay: as above
# Method in brief: as §1
row,Target,log2 fold change
1,LAS1L (UniProt Q9Y4W2),inactive: -0.032
2,LMBRD1 (UniProt Q9NUN5),inactive: -0.026
3,LLGL1 (UniProt Q15334),inactive: -0.022
4,LRP6 (UniProt O75581),inactive: 0.049
5,LMO4 (UniProt P61968),inactive: 0.1
6,LCMT2 (UniProt O60294),inactive: 0.013
7,LLGL2 (UniProt Q6P1M3),inactive: 0.041
8,LEPROTL1 isoform 2 (UniProt O95214),inactive: -0.153
9,LIMK1 (UniProt P53667),inactive: 0.232
10,LIG3 (UniProt P49916),inactive: -0.19
11,LRRC4B (UniProt Q9NT99),inactive: -0.031
12,LIN37 (UniProt Q96GY3),inactive: -0.064
13,LEG1 (UniProt Q6P5S2),inactive: -0.076
14,LRFN1 (UniProt Q9P244),inactive: -0.048
15,LAMP2 isoform 2 (UniProt P13473),inactive: -0.104
16,LETMD1 isoform 7 (UniProt Q6P1Q0),inactive: 0.135
17,LRG1 (UniProt P02750),inactive: 0.189
18,LRRC14 (UniProt Q15048),inactive: 0.184
19,LPIN3 isoform 2 (UniProt Q9BQK8),inactive: 0.022

# Compound: CS(=O)(=O)N1CCN(Cc2cc3nc(-c4cccc5[nH]ncc45)nc(N4CCOCC4)c3s2)CC1 [pictilisib]
# Assay: as above
# Method in brief: as §1
row,Target,log2 fold change
1,LAS1L (UniProt Q9Y4W2),inactive: -0.065
2,LMBRD1 (UniProt Q9NUN5),inactive: -0.03
3,LRP6 (UniProt O75581),inactive: 0.123
4,LMO4 (UniProt P61968),inactive: -0.05
5,LCMT2 (UniProt O60294),inactive: 0.107
6,LRCH4 (UniProt O75427),inactive: 0.254
7,LGALS8 isoform 2 (UniProt O00214),inactive: -0.183
8,LLGL2 (UniProt Q6P1M3),inactive: 0.052
9,LENG8 (UniProt Q96PV6),inactive: -0.002
10,LIG3 (UniProt P49916),inactive: 0.217
11,LRRC4B (UniProt Q9NT99),inactive: -0.053
12,LIN37 (UniProt Q96GY3),inactive: -0.143
13,LCP2 (UniProt Q13094),inactive: 0.07
14,L1TD1 (UniProt Q5T7N2),inactive: 0.538
15,LEG1 (UniProt Q6P5S2),inactive: -0.033
16,LAMP2 isoform 2 (UniProt P13473),inactive: 0.075
17,LETMD1 isoform 7 (UniProt Q6P1Q0),inactive: 0.208
18,LRG1 (UniProt P02750),inactive: 0
19,LPIN3 isoform 2 (UniProt Q9BQK8),inactive: 0.147
